Experimental findings from PMC11321020 are described below.

The chains behind the UniProt entries cited, without tags or fusion partners.
UniProt P16110: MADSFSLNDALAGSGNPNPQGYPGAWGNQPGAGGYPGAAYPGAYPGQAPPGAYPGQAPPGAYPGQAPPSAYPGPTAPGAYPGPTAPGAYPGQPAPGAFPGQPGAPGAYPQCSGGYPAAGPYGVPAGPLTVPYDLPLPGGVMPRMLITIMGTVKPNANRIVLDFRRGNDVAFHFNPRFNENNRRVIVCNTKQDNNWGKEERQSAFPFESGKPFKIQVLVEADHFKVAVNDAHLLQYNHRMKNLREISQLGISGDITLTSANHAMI

These are yes or no findings as the source states them, for the method shown. Binding seen in cells or lysates may run through a third protein. Some results given as binding are weak or reduced against the parent protein; the word gives no strength.

This experiment deals with T1, mouse-derived TREM2 (exogenous CO-IP construct) (mouse) (UniProt Q99NH8).
T1 sequence: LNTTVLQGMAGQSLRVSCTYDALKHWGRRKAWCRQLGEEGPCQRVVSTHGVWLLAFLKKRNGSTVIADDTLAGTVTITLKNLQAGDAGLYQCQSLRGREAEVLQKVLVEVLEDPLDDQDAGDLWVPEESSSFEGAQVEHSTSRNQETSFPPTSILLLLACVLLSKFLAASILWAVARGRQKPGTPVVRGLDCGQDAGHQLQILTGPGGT
Briefly: co-IP; exogenous CO-IP of mouse-derived TREM2 and galectin-3 in 293T (Supplementary Fig. 3A-C); precipitating antibody not shown.

With “mouse-derived galectin-3 (exogenous CO-IP construct) (from UniProt P16110 1-264) (ligand)”, the binding result is reported as “binds”.
